PubChem BioAssay AID602196, INSERM | 2012
This is a random part of about 23,000 reagents tested. 455 of all reagents (2%) count as active. 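Active includes both protection and sensitisation; some change values fall well beyond the stated -50 to +50 range.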 Further read-outs or replicates are left out here. The record does not give: the amount of reagent.

Purpose: 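Genes whose knock-down alters cisplatin killing of lung cancer cells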
Cells: human A549 lung cancer cells
Knock-down reagent: siRNA pair against human genes
Duration: 48 h transfection before cisplatin; time from cisplatin to read-out not stated
Challenge: cisplatin at a dose killing half of control-siRNA cells; exact dose and duration not given
Measured: 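Cisplatin cell death as a shift from the 50% death seen with control siRNA; siRNAs toxic or growth-blocking alone scored 0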
Direction: two-siRNA summed score (-2 to +2): higher = both siRNAs protect from cisplatin killing; -2 means both sensitise
Rule for the call: 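siRNAs harmful alone (LDH or WST-1) get 0; others get +1 for less and -1 for more cisplatin killing; genes are active when the two siRNAs give the same sign, summing to ±2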
Meaning of the calls: active = both siRNAs shift cisplatin killing the same way; inactive = no consistent shift, or siRNA harmful alone

For PDE4DIP, how do the results read?
two-siRNA summed score (-2 to +2): 0; activity call: inactive

With OAS1, how do the results read?
two-siRNA summed score (-2 to +2): 0; activity call: inactive

For ZC4H2, how do the results read?
two-siRNA summed score (-2 to +2): 0; activity call: inactive

With PLIN1, what does the deposit list?
two-siRNA summed score (-2 to +2): 0; activity call: inactive

What is on record for ELAPOR2?
two-siRNA summed score (-2 to +2): 1; activity call: inactive

How did the screen score HNMT?
two-siRNA summed score (-2 to +2): 0; activity call: inactive

For HOXA1, how do the results read?
two-siRNA summed score (-2 to +2): -1; activity call: inactive

How did the screen score CYB5A?
two-siRNA summed score (-2 to +2): 0; activity call: inactive

How did the screen score DUOX2?
two-siRNA summed score (-2 to +2): 0; activity call: inactive

With MAGEA4, how do the results read?
two-siRNA summed score (-2 to +2): 0; activity call: inactive

What did the screen give for NRXN2?
two-siRNA summed score (-2 to +2): 0; activity call: inactive

How did the screen score ITSN1?
two-siRNA summed score (-2 to +2): -1; activity call: inactive

For GNLY, what does the deposit list?
two-siRNA summed score (-2 to +2): 0; activity call: inactive

What is on record for POLE?
two-siRNA summed score (-2 to +2): 0; activity call: inactive

For CEP164, what was measured?
two-siRNA summed score (-2 to +2): 0; activity call: inactive

With CDONP2, how do the results read?
two-siRNA summed score (-2 to +2): 1; activity call: inactive

For ZMYM3, how do the results read?
two-siRNA summed score (-2 to +2): -1; activity call: inactive

For LOC253662, what was measured?
two-siRNA summed score (-2 to +2): 0; activity call: inactive

Records listed so far whose target name begins with H or h:
HNMT: two-siRNA summed score (-2 to +2) = 0; activity call = inactive
HOXA1: two-siRNA summed score (-2 to +2) = -1; activity call = inactive

The results go on.
For HCFC2, what does the deposit list?
two-siRNA summed score (-2 to +2): 0; activity call: inactive

For LOC439967, what was measured?
two-siRNA summed score (-2 to +2): 0; activity call: inactive

Which result is listed for RPS6KL1?
two-siRNA summed score (-2 to +2): 0; activity call: inactive

With DNAJC4, what was measured?
two-siRNA summed score (-2 to +2): 0; activity call: inactive

How did the screen score CDX1?
two-siRNA summed score (-2 to +2): 1; activity call: inactive

With CHD1, what does the deposit list?
two-siRNA summed score (-2 to +2): -1; activity call: inactive

For NMRAL1, what was measured?
two-siRNA summed score (-2 to +2): 0; activity call: inactive

What is on record for TCF4?
two-siRNA summed score (-2 to +2): 0; activity call: inactive

With RGS14, what was measured?
two-siRNA summed score (-2 to +2): 0; activity call: inactive

What did the screen give for IGHV3OR16-17?
two-siRNA summed score (-2 to +2): 2; activity call: active

With TRUB1, what was measured?
two-siRNA summed score (-2 to +2): 1; activity call: inactive

For RIPOR3, what was measured?
two-siRNA summed score (-2 to +2): 0; activity call: inactive

How did the screen score PDIA2?
two-siRNA summed score (-2 to +2): 0; activity call: inactive
